From the supplement of paper PMC10849652
Some of the results follow.

The chains behind the UniProt entries cited, without tags or fusion partners. Where a name states a change or a piece, a line headed by the entry shows the natural chain unless it says otherwise.
UniProt Q9BT73: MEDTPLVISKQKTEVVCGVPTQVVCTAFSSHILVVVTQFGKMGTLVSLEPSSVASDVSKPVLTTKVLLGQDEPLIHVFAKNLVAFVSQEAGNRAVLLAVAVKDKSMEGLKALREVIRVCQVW
UniProt Q15185: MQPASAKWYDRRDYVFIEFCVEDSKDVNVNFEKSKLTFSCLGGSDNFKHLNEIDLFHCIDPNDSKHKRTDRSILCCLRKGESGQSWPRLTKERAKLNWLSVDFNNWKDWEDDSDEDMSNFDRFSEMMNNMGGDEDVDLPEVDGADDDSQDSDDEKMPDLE
UniProt Q13332: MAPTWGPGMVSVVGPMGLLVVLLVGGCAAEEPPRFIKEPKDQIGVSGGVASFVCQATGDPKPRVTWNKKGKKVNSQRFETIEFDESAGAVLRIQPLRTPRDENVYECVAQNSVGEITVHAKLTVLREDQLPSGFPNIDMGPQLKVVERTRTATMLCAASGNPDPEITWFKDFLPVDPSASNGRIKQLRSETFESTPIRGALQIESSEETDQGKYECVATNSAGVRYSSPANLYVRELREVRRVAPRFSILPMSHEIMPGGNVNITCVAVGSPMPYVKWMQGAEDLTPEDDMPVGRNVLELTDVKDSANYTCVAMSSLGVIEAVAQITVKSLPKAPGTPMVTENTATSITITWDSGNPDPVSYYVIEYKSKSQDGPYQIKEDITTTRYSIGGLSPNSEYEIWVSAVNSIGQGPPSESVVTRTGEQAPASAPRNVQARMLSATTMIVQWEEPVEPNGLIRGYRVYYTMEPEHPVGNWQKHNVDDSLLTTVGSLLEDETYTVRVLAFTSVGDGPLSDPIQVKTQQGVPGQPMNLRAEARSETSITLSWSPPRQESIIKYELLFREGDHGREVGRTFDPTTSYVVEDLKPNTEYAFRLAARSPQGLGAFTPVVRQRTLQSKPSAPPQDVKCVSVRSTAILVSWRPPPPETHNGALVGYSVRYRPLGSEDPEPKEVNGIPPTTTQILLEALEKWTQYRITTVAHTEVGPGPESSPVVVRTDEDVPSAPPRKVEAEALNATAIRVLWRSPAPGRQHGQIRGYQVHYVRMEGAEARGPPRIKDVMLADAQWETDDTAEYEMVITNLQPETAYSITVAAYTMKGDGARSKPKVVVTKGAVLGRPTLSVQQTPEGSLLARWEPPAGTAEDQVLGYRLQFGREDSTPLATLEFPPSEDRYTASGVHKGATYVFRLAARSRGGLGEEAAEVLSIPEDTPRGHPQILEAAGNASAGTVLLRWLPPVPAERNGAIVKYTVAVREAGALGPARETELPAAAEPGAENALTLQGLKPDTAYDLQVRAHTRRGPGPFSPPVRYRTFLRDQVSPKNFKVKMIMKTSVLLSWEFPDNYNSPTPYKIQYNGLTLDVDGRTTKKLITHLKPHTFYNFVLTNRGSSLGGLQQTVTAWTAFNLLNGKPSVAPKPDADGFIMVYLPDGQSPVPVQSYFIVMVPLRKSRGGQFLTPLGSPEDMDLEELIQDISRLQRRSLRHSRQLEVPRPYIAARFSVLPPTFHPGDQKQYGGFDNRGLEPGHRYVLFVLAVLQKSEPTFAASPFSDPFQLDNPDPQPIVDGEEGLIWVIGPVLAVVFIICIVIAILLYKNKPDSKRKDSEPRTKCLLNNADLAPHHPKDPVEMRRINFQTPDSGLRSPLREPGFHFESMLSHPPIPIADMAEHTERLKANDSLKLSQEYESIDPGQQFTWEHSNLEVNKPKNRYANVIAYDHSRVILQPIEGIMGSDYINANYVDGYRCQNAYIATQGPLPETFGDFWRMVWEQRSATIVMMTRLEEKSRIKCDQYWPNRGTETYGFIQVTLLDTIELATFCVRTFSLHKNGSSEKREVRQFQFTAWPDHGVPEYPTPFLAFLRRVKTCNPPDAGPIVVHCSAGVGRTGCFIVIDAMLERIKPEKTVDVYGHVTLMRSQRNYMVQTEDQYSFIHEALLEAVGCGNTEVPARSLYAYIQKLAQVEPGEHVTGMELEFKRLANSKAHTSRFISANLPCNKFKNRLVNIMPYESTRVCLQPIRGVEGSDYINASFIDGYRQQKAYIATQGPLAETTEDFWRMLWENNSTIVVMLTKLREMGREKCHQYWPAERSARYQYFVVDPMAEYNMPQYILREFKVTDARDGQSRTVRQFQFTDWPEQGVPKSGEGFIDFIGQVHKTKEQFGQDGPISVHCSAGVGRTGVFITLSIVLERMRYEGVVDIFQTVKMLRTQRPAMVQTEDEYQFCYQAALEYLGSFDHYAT
UniProt Q93096: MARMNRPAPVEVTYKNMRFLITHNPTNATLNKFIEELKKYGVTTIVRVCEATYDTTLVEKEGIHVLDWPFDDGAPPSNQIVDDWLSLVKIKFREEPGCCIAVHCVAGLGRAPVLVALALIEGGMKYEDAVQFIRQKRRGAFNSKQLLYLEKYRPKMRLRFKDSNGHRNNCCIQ
UniProt P11908: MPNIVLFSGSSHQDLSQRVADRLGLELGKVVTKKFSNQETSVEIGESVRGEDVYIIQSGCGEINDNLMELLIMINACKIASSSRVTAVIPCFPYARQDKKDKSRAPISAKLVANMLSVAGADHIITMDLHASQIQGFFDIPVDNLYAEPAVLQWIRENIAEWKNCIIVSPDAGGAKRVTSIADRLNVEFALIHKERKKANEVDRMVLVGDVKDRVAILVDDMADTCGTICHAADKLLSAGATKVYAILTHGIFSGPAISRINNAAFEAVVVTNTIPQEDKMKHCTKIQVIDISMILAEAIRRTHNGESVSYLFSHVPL
UniProt Q5JSZ5: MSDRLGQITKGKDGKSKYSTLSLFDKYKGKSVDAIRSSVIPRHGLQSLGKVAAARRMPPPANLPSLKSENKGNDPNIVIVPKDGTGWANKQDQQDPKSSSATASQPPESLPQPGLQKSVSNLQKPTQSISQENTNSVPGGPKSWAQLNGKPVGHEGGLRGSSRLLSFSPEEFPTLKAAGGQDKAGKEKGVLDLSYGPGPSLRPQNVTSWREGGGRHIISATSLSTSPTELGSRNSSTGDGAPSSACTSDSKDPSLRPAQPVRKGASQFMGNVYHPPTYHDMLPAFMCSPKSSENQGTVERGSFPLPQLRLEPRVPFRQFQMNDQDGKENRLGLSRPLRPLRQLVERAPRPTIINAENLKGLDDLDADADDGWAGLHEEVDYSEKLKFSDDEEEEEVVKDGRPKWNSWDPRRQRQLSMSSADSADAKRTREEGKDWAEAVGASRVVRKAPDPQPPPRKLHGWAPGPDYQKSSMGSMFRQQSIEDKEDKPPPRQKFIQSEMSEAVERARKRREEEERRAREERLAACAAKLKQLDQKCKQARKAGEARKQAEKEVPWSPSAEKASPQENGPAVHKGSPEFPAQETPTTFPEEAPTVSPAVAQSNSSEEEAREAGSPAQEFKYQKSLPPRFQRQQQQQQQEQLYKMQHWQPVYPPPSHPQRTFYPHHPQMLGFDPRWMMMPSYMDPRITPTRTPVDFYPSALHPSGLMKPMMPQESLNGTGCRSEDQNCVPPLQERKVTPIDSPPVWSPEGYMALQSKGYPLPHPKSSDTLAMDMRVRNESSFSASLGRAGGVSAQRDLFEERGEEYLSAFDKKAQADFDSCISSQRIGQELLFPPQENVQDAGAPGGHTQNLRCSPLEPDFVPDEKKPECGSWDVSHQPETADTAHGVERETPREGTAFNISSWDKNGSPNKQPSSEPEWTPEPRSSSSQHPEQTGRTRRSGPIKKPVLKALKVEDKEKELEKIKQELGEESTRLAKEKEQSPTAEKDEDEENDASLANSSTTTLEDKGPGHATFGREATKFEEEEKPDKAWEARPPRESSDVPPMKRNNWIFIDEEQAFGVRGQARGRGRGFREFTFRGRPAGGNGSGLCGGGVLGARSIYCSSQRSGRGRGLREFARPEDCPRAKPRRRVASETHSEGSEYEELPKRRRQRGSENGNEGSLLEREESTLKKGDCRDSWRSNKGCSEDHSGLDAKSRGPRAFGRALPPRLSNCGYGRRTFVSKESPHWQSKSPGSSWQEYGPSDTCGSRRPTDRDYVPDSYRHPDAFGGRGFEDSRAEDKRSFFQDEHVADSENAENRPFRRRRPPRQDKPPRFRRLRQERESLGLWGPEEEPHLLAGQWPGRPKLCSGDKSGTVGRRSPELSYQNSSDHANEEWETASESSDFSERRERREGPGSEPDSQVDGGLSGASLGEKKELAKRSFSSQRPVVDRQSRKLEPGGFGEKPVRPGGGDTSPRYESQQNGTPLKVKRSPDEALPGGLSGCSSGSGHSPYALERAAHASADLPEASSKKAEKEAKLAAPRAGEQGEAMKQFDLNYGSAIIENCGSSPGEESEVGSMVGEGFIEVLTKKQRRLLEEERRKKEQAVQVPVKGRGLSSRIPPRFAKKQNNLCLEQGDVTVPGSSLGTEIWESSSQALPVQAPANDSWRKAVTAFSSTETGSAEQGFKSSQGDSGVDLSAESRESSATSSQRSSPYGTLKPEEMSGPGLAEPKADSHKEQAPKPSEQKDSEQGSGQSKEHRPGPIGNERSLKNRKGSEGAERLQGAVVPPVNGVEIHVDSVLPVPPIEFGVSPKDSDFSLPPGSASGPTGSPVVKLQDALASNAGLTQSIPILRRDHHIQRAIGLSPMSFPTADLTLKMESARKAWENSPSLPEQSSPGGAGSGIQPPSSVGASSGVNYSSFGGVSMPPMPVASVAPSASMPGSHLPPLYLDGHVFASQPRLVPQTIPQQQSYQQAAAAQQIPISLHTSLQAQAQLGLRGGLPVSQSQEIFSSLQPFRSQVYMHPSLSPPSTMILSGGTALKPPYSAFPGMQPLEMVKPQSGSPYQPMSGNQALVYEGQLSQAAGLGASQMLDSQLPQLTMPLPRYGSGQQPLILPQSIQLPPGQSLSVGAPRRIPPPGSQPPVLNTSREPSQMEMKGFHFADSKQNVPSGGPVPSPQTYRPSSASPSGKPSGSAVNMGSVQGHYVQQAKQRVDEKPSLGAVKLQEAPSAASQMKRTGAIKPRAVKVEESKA
UniProt Q92530: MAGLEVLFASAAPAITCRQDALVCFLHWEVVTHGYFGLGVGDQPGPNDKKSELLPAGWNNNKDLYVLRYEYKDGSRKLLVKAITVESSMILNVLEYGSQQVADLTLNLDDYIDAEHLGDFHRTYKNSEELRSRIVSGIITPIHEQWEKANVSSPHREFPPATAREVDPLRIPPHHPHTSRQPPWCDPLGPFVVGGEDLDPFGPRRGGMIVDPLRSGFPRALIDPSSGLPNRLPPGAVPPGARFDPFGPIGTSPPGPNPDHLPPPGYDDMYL
UniProt Q6PGN9: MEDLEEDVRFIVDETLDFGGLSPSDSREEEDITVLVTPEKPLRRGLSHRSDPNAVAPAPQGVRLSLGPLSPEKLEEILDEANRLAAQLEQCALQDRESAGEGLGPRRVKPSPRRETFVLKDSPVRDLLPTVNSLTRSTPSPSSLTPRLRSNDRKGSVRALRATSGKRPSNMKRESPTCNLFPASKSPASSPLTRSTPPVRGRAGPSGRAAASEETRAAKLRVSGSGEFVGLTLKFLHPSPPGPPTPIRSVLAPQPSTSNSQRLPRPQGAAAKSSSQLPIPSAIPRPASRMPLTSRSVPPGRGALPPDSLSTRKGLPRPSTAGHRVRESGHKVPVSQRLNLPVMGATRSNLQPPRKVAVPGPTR
UniProt P23219, whole entry, looked up: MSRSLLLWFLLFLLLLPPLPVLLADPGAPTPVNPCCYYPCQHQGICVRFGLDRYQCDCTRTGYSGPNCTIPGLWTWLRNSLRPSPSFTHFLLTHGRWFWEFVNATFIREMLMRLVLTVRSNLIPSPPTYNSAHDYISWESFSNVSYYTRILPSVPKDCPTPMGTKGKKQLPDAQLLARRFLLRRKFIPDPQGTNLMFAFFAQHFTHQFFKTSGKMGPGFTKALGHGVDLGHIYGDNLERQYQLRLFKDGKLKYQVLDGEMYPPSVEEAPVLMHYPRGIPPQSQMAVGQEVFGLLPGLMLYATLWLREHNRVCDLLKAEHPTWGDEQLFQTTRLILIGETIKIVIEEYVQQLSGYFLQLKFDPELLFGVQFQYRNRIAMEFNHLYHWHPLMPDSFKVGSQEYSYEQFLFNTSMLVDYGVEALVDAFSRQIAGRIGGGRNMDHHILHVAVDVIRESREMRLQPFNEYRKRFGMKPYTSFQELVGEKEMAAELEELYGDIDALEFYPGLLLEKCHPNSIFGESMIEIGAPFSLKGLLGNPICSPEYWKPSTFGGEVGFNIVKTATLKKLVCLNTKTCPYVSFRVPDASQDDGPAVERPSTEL
UniProt P15151: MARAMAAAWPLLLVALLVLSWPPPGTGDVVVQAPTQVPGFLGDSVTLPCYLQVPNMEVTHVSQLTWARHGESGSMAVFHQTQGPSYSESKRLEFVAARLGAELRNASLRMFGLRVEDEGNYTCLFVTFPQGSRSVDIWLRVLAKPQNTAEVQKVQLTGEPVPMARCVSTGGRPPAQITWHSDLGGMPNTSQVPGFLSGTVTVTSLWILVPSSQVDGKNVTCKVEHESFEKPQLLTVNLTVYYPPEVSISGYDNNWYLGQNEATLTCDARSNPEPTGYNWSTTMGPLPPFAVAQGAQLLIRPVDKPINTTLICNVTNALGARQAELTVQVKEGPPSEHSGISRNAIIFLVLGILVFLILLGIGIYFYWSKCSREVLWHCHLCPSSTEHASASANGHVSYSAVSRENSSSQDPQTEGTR

Experiments:
Assay in all cases: log2 fold change, soluble protein after heating vs DMSO (PISA); higher = thermal stabilisation; K562 lysate, 10 uM; active = over 0.2 and 3.5 SD of the protein, either way, in both replicates (recomputed)
nilotinib = compound: Cc1cn(-c2cc(NC(=O)c3ccc(C)c(Nc4nccc(-c5cccnc5)n4)c3)cc(C(F)(F)F)c2)cn1 [nilotinib]
Procedure, shortened: (§1)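 Pellets of K562 cells were dounce-homogenised in PBS pH 7.4 with 1 mM MgCl2, and the crude extract was held at 1 mg/mL protein for a 30 min treatment with 10 μM compound. Aliquots were heated for 3 min over 48°C-58°C and pooled before NP-40 was added to 0.5% at 4°C. The supernatant from 21,000xg for 90 min was quantified by TMTpro 16plex LC-MS/MS with channel sums equalised. Values are reported from duplicates as log-two fold change in thermal stability relative to solvent controls.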

[1] = compound: Cc1nc(Nc2n[nH]c3c2CN(C(=O)N[C@H](CN(C)C)c2ccccc2)C3(C)C)c2sccc2n1
Procedure, shortened: as §1

dasatinib = compound: Cc1nc(Nc2ncc(C(=O)Nc3c(C)cccc3Cl)s2)cc(N2CCN(CCO)CC2)n1 [dasatinib]
Procedure, shortened: as §1

[2] = compound: Cc1ncc(-c2ccnc(Nc3ccc(S(C)(=O)=O)cc3)n2)n1C(C)C
Procedure, shortened: as §1

[3] = compound: Cn1cc(-c2ccc3c(c2)CCN3C(=O)Cc2cccc(C(F)(F)F)c2)c2c(N)ncnc21
Procedure, shortened: as §1

quisinostat = compound: Cn1cc(CNCC2CCN(c3ncc(C(=O)NO)cn3)CC2)c2ccccc21 [quisinostat]
Procedure, shortened: as §1

tipifarnib = compound: Cn1cncc1[C@@](N)(c1ccc(Cl)cc1)c1ccc2c(c1)c(-c1cccc(Cl)c1)cc(=O)n2C [tipifarnib]
Procedure, shortened: as §1

[4] = compound: NC(=O)Nc1cc(-c2cccc(F)c2)sc1C(=O)N[C@H]1CCCNC1
Procedure, shortened: as §1

[5] = compound: NC(=O)c1cnc(N[C@@H]2CCCC[C@@H]2N)nc1Nc1cccc(-n2nccn2)c1
Procedure, shortened: as §1

[6] = compound: NC1(c2ccc(-c3nc4ccn5c(=O)[nH]nc5c4cc3-c3ccccc3)cc2)CCC1
Procedure, shortened: as §1

[7] = compound: NCC(=O)Nc1ccc(-n2nc(C(F)(F)F)cc2-c2ccc3c(ccc4ccccc43)c2)cc1
Procedure, shortened: as §1

vorinostat = compound: O=C(CCCCCCC(=O)Nc1ccccc1)NO [vorinostat]
Procedure, shortened: as §1

silmitasertib = compound: O=C(O)c1ccc2c(c1)nc(Nc1cccc(Cl)c1)c1ccncc12 [silmitasertib]
Procedure, shortened: as §1

[8] = compound: O=C1NC(=O)C(c2cnc3ccccn23)=C1c1cn2c3c(cc(F)cc13)CN(C(=O)N1CCCCC1)CC2
Procedure, shortened: as §1

entospletinib = compound: c1cn2cc(-c3ccc4cn[nH]c4c3)nc(Nc3ccc(N4CCOCC4)cc3)c2n1 [entospletinib]
Procedure, shortened: as §1

Target | log2 fold change (nilotinib) | log2 fold change [1] | log2 fold change (dasatinib) | log2 fold change [2] | log2 fold change [3] | log2 fold change (quisinostat) | log2 fold change (tipifarnib) | log2 fold change [4] | log2 fold change [5] | log2 fold change [6] | log2 fold change [7] | log2 fold change (vorinostat) | log2 fold change (silmitasertib) | log2 fold change [8] | log2 fold change (entospletinib)
PSMD4 (UniProt P55036) | inactive: 0.016 | inactive: -0.01 | inactive: -0.018 | inactive: 0.017 | inactive: -0.014 | inactive: -0.011 | inactive: 0.003 | inactive: -0.022 | inactive: -0.002 | inactive: 0.001 | inactive: -0.002 | inactive: 0.023 | inactive: 0 | inactive: 0.014 | inactive: 0.003
PSMG3 (UniProt Q9BT73) | inactive: -0.004 | inactive: -0.011 | inactive: 0.074 | inactive: -0.008 | inactive: 0 | inactive: 0.006 | inactive: 0.005 | inactive: 0.017 | inactive: 0.025 | inactive: -0.022 | inactive: -0.022 | inactive: 0.06 | inactive: 0.007 | inactive: -0.007 | inactive: 0.039
PSTPIP2 (UniProt Q9H939) | inactive: 0.029 | inactive: 0.016 | inactive: -0.056 | inactive: 0.028 | inactive: 0.023 | inactive: -0.037 | inactive: -0.008 | inactive: 0.008 | inactive: -0.007 | inactive: 0.007 | inactive: 0.046 | active: -0.312 | inactive: 0.04 | inactive: 0.017 | inactive: -0.005
PSD4 (UniProt Q8NDX1) | inactive: 0.027 | inactive: 0.013 | inactive: -0.036 | inactive: -0.004 | inactive: 0 | inactive: -0.072 | inactive: 0.014 | inactive: 0.002 | inactive: 0.004 | inactive: -0.002 | inactive: 0.046 | inactive: -0.164 | inactive: 0.039 | inactive: 0.052 | inactive: -0.017
PTGES3 (UniProt Q15185) | inactive: 0.034 | inactive: 0.003 | inactive: 0.008 | inactive: 0.021 | inactive: -0.011 | inactive: -0.011 | inactive: -0.021 | inactive: -0.003 | inactive: -0.026 | inactive: 0.03 | inactive: -0.013 | inactive: -0.06 | inactive: 0.012 | inactive: 0.02 | inactive: 0.04
PTPRS isoform 3 (UniProt Q13332) | inactive: 0.067 | inactive: -0.138 | inactive: 0.007 | inactive: 0.099 | inactive: -0.042 | inactive: -0.085 | inactive: -0.04 | inactive: -0.039 | inactive: 0.008 | inactive: 0.01 | inactive: -0.002 | inactive: 0.149 | inactive: -0.008 | inactive: 0.005 | inactive: -0.027
PTPN12 (UniProt Q05209) | inactive: -0.034 | inactive: 0.028 | inactive: -0.04 | inactive: -0.02 | inactive: 0.01 | inactive: -0.018 | inactive: -0.017 | inactive: 0.006 | inactive: 0.007 | inactive: 0.007 | inactive: -0.001 | inactive: -0.06 | inactive: -0.004 | inactive: -0.002 | inactive: 0.02
PSMC2 (UniProt P35998) | inactive: 0.009 | inactive: 0.011 | inactive: 0.053 | inactive: 0.01 | inactive: 0.054 | inactive: 0.003 | inactive: 0.024 | inactive: 0.021 | inactive: 0.007 | inactive: -0.011 | inactive: 0.014 | inactive: -0.007 | inactive: 0.009 | inactive: 0.016 | inactive: 0.023
PSMA2 (UniProt P25787) | inactive: 0.028 | inactive: -0.039 | inactive: 0.008 | inactive: -0.026 | inactive: -0.029 | inactive: -0.022 | inactive: 0.015 | inactive: 0.002 | inactive: -0.011 | inactive: 0.018 | inactive: 0.009 | inactive: 0.147 | inactive: -0.018 | inactive: 0.024 | inactive: 0.028
PTCD3 (UniProt Q96EY7) | inactive: -0.039 | inactive: -0.007 | inactive: 0.018 | inactive: -0.006 | inactive: 0.055 | inactive: -0.04 | inactive: 0.002 | inactive: -0.018 | inactive: 0.016 | inactive: 0.027 | inactive: 0.026 | inactive: -0.094 | inactive: 0.039 | inactive: 0.094 | inactive: 0.029
PTP4A1 (UniProt Q93096) | inactive: -0.035 | inactive: 0.005 | inactive: 0.026 | inactive: -0.057 | inactive: 0 | inactive: 0.151 | inactive: 0.011 | inactive: -0.059 | inactive: -0.011 | inactive: -0.029 | inactive: 0.019 | active: -0.292 | inactive: -0.003 | inactive: 0.014 | inactive: -0.009
PRPS2 isoform 2 (UniProt P11908) | inactive: 0.02 | inactive: -0.02 | inactive: -0.033 | inactive: -0.013 | inactive: 0.013 | inactive: 0.014 | inactive: 0.004 | inactive: -0.003 | inactive: -0.008 | inactive: 0.032 | inactive: 0.008 | inactive: -0.11 | inactive: 0.012 | inactive: -0.025 | inactive: -0.003
PTPN23 (UniProt Q9H3S7) | inactive: -0.003 | inactive: -0.029 | inactive: -0.034 | inactive: -0.002 | inactive: 0.01 | inactive: 0.002 | inactive: 0 | inactive: 0.024 | inactive: 0.025 | inactive: 0.005 | inactive: -0.011 | active: -0.266 | inactive: -0.007 | inactive: 0 | inactive: 0.009
PTK2B (UniProt Q14289) | inactive: 0.011 | inactive: 0.109 | inactive: 0.041 | inactive: 0.026 | inactive: 0.059 | inactive: -0.122 | inactive: -0.067 | active: 0.377 | inactive: 0.072 | inactive: -0.04 | inactive: 0.016 | active: -0.339 | inactive: 0.021 | inactive: -0.088 | inactive: -0.002
PRRC2B (UniProt Q5JSZ5) | inactive: -0.054 | inactive: -0.036 | inactive: -0.071 | inactive: 0.006 | inactive: -0.027 | inactive: 0.044 | inactive: 0.045 | inactive: 0.055 | inactive: -0.002 | inactive: 0.041 | inactive: -0.13 | inactive: -0.06 | inactive: 0.027 | inactive: 0.008 | inactive: 0.002
PSMF1 (UniProt Q92530) | inactive: 0.012 | inactive: -0.033 | inactive: 0.013 | inactive: 0 | inactive: -0.044 | inactive: -0.134 | inactive: -0.057 | inactive: 0.01 | inactive: -0.032 | inactive: -0.032 | inactive: 0.032 | inactive: 0.067 | inactive: -0.043 | inactive: -0.052 | inactive: -0.018
PSRC1 (UniProt Q6PGN9) | inactive: -0.103 | inactive: -0.127 | inactive: -0.003 | inactive: -0.079 | inactive: 0.051 | inactive: -0.083 | inactive: -0.086 | inactive: 0.027 | inactive: -0.081 | inactive: 0.011 | inactive: 0.029 | inactive: -0.087 | inactive: -0.002 | inactive: 0 | inactive: -0.007
PUS10 (UniProt Q3MIT2) | inactive: -0.041 | inactive: -0.037 | inactive: 0.002 | inactive: -0.023 | inactive: 0.051 | inactive: -0.027 | inactive: 0.071 | inactive: 0.022 | inactive: -0.025 | inactive: -0.022 | inactive: -0.021 | inactive: -0.122 | inactive: 0.025 | inactive: 0.033 | inactive: -0.011
PTGS1 isoform 6 (UniProt P23219) | inactive: 0.021 | inactive: 0.058 | inactive: 0.034 | inactive: 0.043 | inactive: 0.053 | inactive: -0.04 | inactive: -0.039 | inactive: 0.022 | inactive: -0.008 | inactive: 0.001 | inactive: -0.013 | inactive: 0.05 | inactive: -0.033 | inactive: 0.003 | inactive: -0.017
PVR (UniProt P15151) | inactive: -0.052 | inactive: 0.017 | inactive: 0.187 | inactive: 0.06 | inactive: -0.182 | inactive: 0.036 | inactive: -0.033 | inactive: 0.006 | inactive: 0.036 | inactive: 0.022 | inactive: 0.108 | inactive: 0.128 | inactive: -0.053 | inactive: -0.041 | inactive: 0.003
PUS3 (UniProt Q9BZE2) | inactive: -0.019 | inactive: 0.045 | inactive: -0.063 | inactive: -0.042 | inactive: 0.145 | inactive: 0.078 | inactive: -0.007 | inactive: -0.003 | inactive: 0.023 | inactive: 0.075 | inactive: 0.051 | active: -0.527 | inactive: 0.11 | inactive: 0.017 | inactive: -0.041

Pulled one by one from the entries so far (2):
Target | log2 fold change (nilotinib) | log2 fold change [1] | log2 fold change (dasatinib) | log2 fold change [2] | log2 fold change [3] | log2 fold change (quisinostat) | log2 fold change (tipifarnib) | log2 fold change [4] | log2 fold change [5] | log2 fold change [6] | log2 fold change [7] | log2 fold change (vorinostat) | log2 fold change (silmitasertib) | log2 fold change [8] | log2 fold change (entospletinib)
PSTPIP2 (UniProt Q9H939) | inactive: 0.029 | inactive: 0.016 | inactive: -0.056 | inactive: 0.028 | inactive: 0.023 | inactive: -0.037 | inactive: -0.008 | inactive: 0.008 | inactive: -0.007 | inactive: 0.007 | inactive: 0.046 | active: -0.312 | inactive: 0.04 | inactive: 0.017 | inactive: -0.005
PRRC2B (UniProt Q5JSZ5) | inactive: -0.054 | inactive: -0.036 | inactive: -0.071 | inactive: 0.006 | inactive: -0.027 | inactive: 0.044 | inactive: 0.045 | inactive: 0.055 | inactive: -0.002 | inactive: 0.041 | inactive: -0.13 | inactive: -0.06 | inactive: 0.027 | inactive: 0.008 | inactive: 0.002
